The values below come from US20060004086A1, “Method of reducing Abeta42 and treating diseases” (Mayo Foundation for Medical Education and Research, priority 2000, published 2006).

Molecules are shown by their SMILES.

Series [1] deals with brain Aβ42 levels in Tg2576 mice. In words: Acute oral dosing of three-month-old Tg2576 mice, brain Aβ ELISA. It is filed as in vivo, mouse. The protocol:
NSAIDs were dissolved in an appropriate vehicle. Dimethyl sulfoxide (DMSO), ethanol, and ethyl acetate are some examples. The NSAID solution was mixed with Kool-Aid and administered orally using a medicine dropper. […] At two hours after the final doses were administered, animals were sacrificed, and SDS soluble Aβ40 and Aβ42 were analyzed using ELISA.
Three month old mice have high levels of soluble Aβ in the brain but no Aβ deposition (see Hsiao et al. (1996) Science 274:99-102). […] Brain levels of SDS-soluble Aβ40 and Aβ42 were measured using ELISA.
Compounds were administered orally.

The test system of another series is COX-1/COX-2. The following applies: cited from earlier work.
Series [2] deals with Aβ42 secretion. In words: Non-selective and selective COX-inhibitors tested for effect on Aβ42 levels in cell cultures (Table 1 summary). It is filed as cell-based. The note with it: effect up to the highest conc. tested listed per drug in Table 1. The protocol: All measurements were performed in duplicate.
(§1) Aβ40 and Aβ42 levels in cell culture supernatants were analyzed using ELISA. Aβ42/Aβ40 ratios and total Aβ levels were normalized to values obtained from DMSO-treated cultures. […] NSAIDs were verified using NMR and mass spectrometry.

For series [3] the following is noted: plasma concentration of the drug; cited from earlier work.
In series [4] the test system is Aβ42 secretion. In words: Aβ40/Aβ42 ELISA of culture supernatants, CHO cells expressing APP751. The note with it: concentrations up to 400 μM. It is filed as cell-based, Chinese hamster. The procedure:
Cell cultures were maintained in standard cell culture media supplemented with 10% fetal bovine serum and 100 U/mL penicillin/streptomycin (Life Technologies Inc., Germany).
For analyses of Aβ secretion, APP processing, and notch cleavage, cells were cultured in serum-containing media and pretreated overnight with a specific NSAID. The next day, media were changed and cultures were treated with the same NSAID for another 24 hours.
Aβ was detected by sandwich enzyme-linked immunosorbent assay (ELISA) as described by Murphy et al. (2000) J Biol Chem 275:26277-84. Following NSAID treatment, culture supernatants were collected, and cell debris was removed by centrifugation. Complete protease inhibitor cocktail (Roche Molecular Biochemicals, IN, USA) was added to the media and Aβ40 and Aβ42 levels were quantified using end-specific Aβ ELISAs. All measurements were performed in duplicate.
The effect of sulindac sulfone on Aβ42 secretion was examined. Sulindac sulfone is an oxidation product of the pro-drug sulindac. […] Cell cultures were treated with increasing concentrations of sulindac sulfone. Aβ40 and Aβ42 levels in culture supernatants were analyzed using ELISA.
as §1
In general terms: ELISA stands for enzyme-linked immunosorbent assay.

[5] abbreviates: three month-old, 50 mg/kg/day orally for three days, SDS-soluble, mean ± SD.

Turning to `COc1ccc2cc([C@H](C)C(=O)O)ccc2c1` [Naproxen, naproxen], in series [1] (setting [5]), the “Brain levels of Aβ40” value is on record as 2786 ± 179 fmol/gm and the “Brain levels of Aβ42” value is reported as 1182 ± 93 fmol/gm. Moreover, the “% Aβ42 in brain” value in series [1] (three month-old, 50 mg/kg/day orally for three days, mean ± SD) was 29.8 ± 1.6%. In addition, in series [1] (treatment for three days, 50 mg/kg/day), the “reduction in Aβ42 levels in the brain” value is “No reduction”. Besides, the “COX-1/COX-2 selectivity# (1 = equal activity)” value in the series with COX-1/COX-2 is listed as 1.79. Besides, the Aβ42/Aβ40 ratio result in the series on Aβ42 secretion [2] was “no effect”. In addition, the Plasma in series [3] was 1.3 µM. The Aβ42/Aβ40 ratios entry with Aβ42 secretion [4] is on record as “did not change Aβ42/Aβ40 ratios”.
